{
  "source": "patent US4698330A",
  "about": "“Somnogenic compositions and method of use” (President & Fellows of Harvard College, priority 1983, dated 1987)",
  "system": "rabbits",
  "assay": "Brain/body temperature (pyrogenic response) after intraventricular infusion in rabbits",
  "assay_type": "in vivo, rabbit",
  "protocol": "Acetaminophen (Sigma) was dissolved in sterile pyrogen-free saline.",
  "note": "At least one compound was matched to its structure with a doubt left. Some entries repeat one wording, which the source may state once for all of them.",
  "data": [
    {"smiles": "CC(=O)N[C@@H]1[C@@H](O[C@H](C)C(=O)N[C@@H](C)C(=O)N[C@H](CCC(=O)O)C(N)=O)[C@H](O)[C@@H](CO)O[C@H]1O", "note": "[MDP, 2-(2-acetamido-2-desoxy-3-O-D-glucopyranosyl)-D-propionyl-L-alanyl-D-isoglutamine]", "values": [
      {"measurement": "Effect Pyr (pyrogenic)", "setting": "dose 0.01 nmol", "result": "-"},
      {"measurement": "Effect Pyr (pyrogenic)", "setting": "dose 0.05 nmol", "result": "+ (a \"+\" in the pyrogenic colum indicates more than 0.5 °C change)"},
      {"measurement": "Effect Pyr (pyrogenic)", "setting": "dose 0.1 nmol", "result": "+ (a \"+\" in the pyrogenic colum indicates more than 0.5 °C change)"},
      {"measurement": "Effect Pyr (pyrogenic)", "setting": "dose 1.0 nmol", "result": "+ (a \"+\" in the pyrogenic colum indicates more than 0.5 °C change)"},
      {"measurement": "Effect Pyr (pyrogenic)", "setting": "dose 10.0 nmol", "result": "+ (a \"+\" in the pyrogenic colum indicates more than 0.5 °C change)"}
    ]}
  ]
}
